Assay results taken from the supplement of paper PMC12578635.
± gives the standard deviation of the averaged measurements. This is one part of the list. Most values come without repeats; read them as rough.

tested on: RAW 264.7 macrophages infected with S. aureus JE2-lux; test: host macrophage viability (CellTiter-Fluor) relative to DMSO vehicle; higher = more viable host cells; details: 10 µM; treatment time 4 h; gentamicin 50 µg/ml

| SMILES | host macrophage viability |
| --- | --- |
| O=C(CSc1nc2[nH]ncc2c(=O)[nH]1)N1CCC(Cc2ccccc2)CC1 | 105% |
| O=C(Nc1cccc(C(=O)N2CCOCC2)c1)c1cnn(-c2ccc(F)cc2)c1 | 122% |
| Cc1nn2c(=O)cc(CSc3nnc(-c4ccc5c(c4)OCO5)o3)nc2s1 | 120% |
| NC(=O)c1ccccc1NC(=O)c1ccc2nncn2c1 | 115% |
| Cc1nn(C)c(C)c1CNC(=O)c1cc(-c2ccccn2)nc2ccccc12 | 95.5% |
| O=C1NC(=O)/C(=C/c2ccc(C(=O)Nc3ccc(C(=O)O)cc3)cc2)S1 | 117% |
| N#CC1=C(N)OC2=C(C(=O)CCC2)C1c1ccc(-c2cccc([N+](=O)[O-])c2)o1 (stereo unspecified) | 105% |
| O=c1nc2s/c(=C/c3ccccn3)c(=O)n2nc1-c1ccccc1 | 121% |
| COC(=O)c1ccccc1NC1SC(=O)N(c2cccc(C)c2)C1=O (stereo unspecified) | 121% |
| Cc1nc(-n2nc(C)c(CCC(C)C)c2O)sc1C(=O)Nc1ccc(Cl)cc1 | 117% |
| Cc1onc(-c2ccncc2)c1C(=O)N1CCn2c(C)ccc2C1C(C)C (stereo unspecified) | 99.3% |
| O=C(NCc1ccc2c(c1)OCO2)c1cnc2ccc(F)cc2c1O | 123% |
| CC(C)(C)c1ncc(C(=O)NC(c2ccccc2)c2cccnc2)cn1 (stereo unspecified) | 114% |
| COc1ccc2c(c1OC)C(=O)OC2Nc1ccc(CC(=O)O)cc1 (stereo unspecified) | 134% |
| Cc1cnc(C(=O)Nc2ccc(C(=O)NC3CC3)cc2)cn1 | 115% |
| COc1cccc(NC(=O)N2CCCC(C(=O)NC3CCCCC3C)C2)c1 (stereo unspecified) | 112% |
| CC(NC(=O)c1ccc2c(=O)[nH]c3c(-c4cccc(C(F)(F)F)c4)nnn3c2c1)c1ccc(F)cc1 (stereo unspecified) | 128% |
| Cc1ccc([N+](=O)[O-])c(OCCSc2nnc3sc4ccccc4n23)c1 | 118 ± 13% |
| CCOc1ccc2c(c1)SC(CC(=O)Nc1sc(C)cc1C(=O)OC)C(=O)N2 (stereo unspecified) | 132% |
| CCn1cc(SCC(=O)NCc2ccccc2)c2ccccc21 | 100% |
| COc1ccc(OC)c(CNC(=O)Cn2cccc2-c2nc(-c3ccc(C)cc3)cs2)c1 | 107% |
| CCOc1ccc2ccccc2c1C(=O)Nc1c2c(nn1-c1ccc(F)cc1)CS(=O)C2 (stereo unspecified) | 127% |

| SMILES | host macrophage viability |
| --- | --- |
| Oc1cccc(C2=NN3C(C2)c2cc(Cl)ccc2OC3c2cccnc2)c1 (stereo unspecified) | 133% |
| COc1cccc(NC(=O)N2CCC(C(=O)NCC3CCCCC3)CC2)c1 | 109% |
| COc1cccc(OC)c1C(=O)Nc1nc2c(C)c(C)ccc2s1 | 124% |
| CCOC(=O)c1cc([N+](=O)[O-])sc1NC(=O)c1ccc(S(=O)(=O)N2CC(C)CC(C)C2)cc1 (stereo unspecified) | 103 ± 0.63% |
| Cc1cccc(NC(=O)c2nn(C)c3c2COc2ccccc2-3)n1 | 109% |
| Cn1c(NC(=O)C2CCCC2)cc(=O)n(C)c1=O | 117% |
| COc1ccc(-c2nsc(SCC(=O)NCc3ccco3)n2)cc1 | 105.6 ± 0.78% |
| CCS(=O)(=O)Nc1ccc(C2=NN(C(C)=O)C(c3ccc(Cl)o3)C2)cc1 (stereo unspecified) | 119% |
| CCOc1ccc2ccccc2c1C(=O)NCc1n[nH]c(=O)c2ccccc12 | 114% |
| CCCn1c(=O)c(=O)[nH]c2cc(-c3noc(CCNS(=O)(=O)c4ccc(C)cc4)n3)ccc21 | 122% |
| Cc1nnc(N2CCC(C(=O)O)CC2)c2nn(-c3ccccc3)c(C)c12 | 116% |
| Cc1ccc2[nH]c3nc(SCC(=O)Nc4ccc(S(=O)(=O)NC5CC5)cc4)nnc3c2c1 | 108% |
| CC(=O)Nc1ccc(S(=O)(=O)N2CCN=C2SCc2cccc(F)c2)cc1 | 120% |
| Cc1c(C)n(-c2ccc(F)c(F)c2)c2ncnc(NCc3ccc(F)cc3Cl)c12 | 100% |
| CCc1ccc(-c2noc3c(=O)n(CCC(=O)Nc4cc(C)ccc4C)cnc23)cc1 | 106% |
| O=C(NC1CCS(=O)(=O)C1)c1cc2n(n1)CCCN(Cc1ccc(F)cc1)C2=O (stereo unspecified) | 105% |
| Cc1cc(C)c2cc(CNCCCN3CCOCC3)c3nn(C)c(=O)n3c2c1 | 134% |
| N#CC(C(=O)c1ccc(Oc2ccccc2)cc1)=C1Nc2ccccc2N1 | 102% |
| CC(=O)Nc1cccnc1-c1ccc(C(=O)NCCC2=CCCCC2)cc1 | 103% |
| Cc1ccc(C2=NC(C)(C)N=C2SCC(=O)Nc2ccccc2)cc1 | 136% |
| Cc1nc(NC(c2ccccc2)c2ccccc2)c2nnn(Cc3ccccc3)c2n1 | 104% |
| O=C(CCC(=O)N1CCc2ccccc21)Nc1noc2ccccc12 | 100% |

| SMILES | host macrophage viability |
| --- | --- |
| COCCNc1c(-c2cccc(F)c2)nc2sc3cc(OC)ccc3n12 | 116% |
| COC(=O)c1ccccc1NC(=O)CSc1nccnc1N1CCSCC1 | 100% |
| Cc1ccc(C)c(S(=O)(=O)Nc2ccc3nnc(C)n3n2)c1 | 125% |
| Cc1cccc(NC(=O)Cn2cc(S(=O)(=O)Cc3ccccc3F)c3ccccc32)n1 | 108% |
| COC(=O)c1ccc(CSc2nncc(=O)n2N)o1 | 114% |
| COc1cccc2cc(C(=O)Nc3cccc(NC(=O)c4ccccn4)c3)c(=O)oc12 | 117% |
| Cc1ccccc1C(NC(=O)c1cc2c([nH]c1=O)CCCCC2)c1ccncc1 (stereo unspecified) | 101% |
| CCSc1ccccc1C(=O)N1CCN(c2nc3c(OC)ccc(C)c3s2)CC1 | 100% |
| Cc1ccc(S(=O)(=O)c2cnc(SCC(=O)Nc3ccccc3)[nH]c2=O)cc1C | 129% |
| O=C(NCc1cccs1)C1CCCN(C(=O)Nc2ccc(F)cc2)C1 (stereo unspecified) | 108% |
| O=C(Nc1nc2c(s1)CCc1ccccc1-2)C1CC1 | 124% |
| Clc1ccc(CSc2nnc3ccc(-c4ccncc4)nn23)cc1 | 114% |
| Cc1sc2c(c1C)c(=O)nc1scc(CC(=O)O)n12 | 119% |
| O=C(CSc1ncnc2c1sc1nc3ccccc3cc12)N1CCOCC1 | 113% |
| O=C(N/N=C/c1cc([N+](=O)[O-])ccc1O)c1ccc([N+](=O)[O-])cc1 | 103 ± 1.7% |
| C=C(C)Cn1c(SCCN2CCOCC2)nc2c1c(=O)[nH]c(=O)n2C | 122% |
| CCc1cnc2c(c1OC)c(=O)n(CC(=O)NCc1ccccc1)c(=O)n2C | 118% |
| Cc1cc(C)cc(/N=c2\oc3c(C)ncc(CO)c3cc2C(N)=O)c1 | 127% |
| NC1=NN(c2ccccc2)C(=O)/C1=N/Nc1ccc(-c2ccccc2)cc1 | 83.1% |
| O=C(NCc1cccnc1)C(=O)NCC(c1ccco1)N1CCN(c2ccc(F)cc2)CC1 (stereo unspecified) | 116% |
| CC(C)(C)n1nc2c(c1NC(=O)c1ccc(Br)cc1)CS(=O)C2 (stereo unspecified) | 124% |
| COc1cc(C2NC(=O)NC3=C2C(=O)N(Cc2ccc(F)cc2)C3)cc(OC)c1OC (stereo unspecified) | 118% |

| SMILES | host macrophage viability |
| --- | --- |
| Cc1ccc(-c2cnc3ccccc3n2)cc1NC(=O)CN1CC(C)OC(C)C1 (stereo unspecified) | 99.9% |
| Cc1nc(SCC(=O)c2ccc3c(c2)OCCO3)c2c3c(sc2n1)CCC3 | 124% |
| COc1cc(NC(=O)Nc2c(-c3cccnc3)[nH]c3ccc(Cl)cc23)cc(OC)c1 | 94.6% |
| CC1CCN(CC(O)Cn2c3ccccc3c3ccccc32)CC1 (stereo unspecified) | 114% |
| O=C1CC(c2ccccc2)=NN1c1ccc2ccccc2c1 | 110 ± 13% |
| O=C(NC1CCN(C(=O)CNCc2ccc3c(c2)OCO3)CC1)c1ccccc1F | 113% |
| N=C1NC(=O)C(CC(=O)Nc2ccc(N3CCOCC3)cc2)S1 (stereo unspecified) | 124% |
| CC(=O)N1N=C(c2ccc(NS(C)(=O)=O)cc2)CC1c1ccc2c(c1)OCO2 (stereo unspecified) | 104% |
| CCOc1cccc2sc(NNC(=O)c3ccccc3)nc12 | 110 ± 8.9% |
| N#C/C(C(=O)NCCc1ccccc1)=C1/N=C(NC(=O)c2cccs2)c2ccccc21 | 135% |
| O=C(NC1CCCCC1)NC1(C(=O)Nc2ccc3c(c2)OCCO3)CCCCC1 | 129% |
| COc1ccc(S(=O)(=O)NCc2ccco2)cc1[N+](=O)[O-] | 109% |
| CCOC(=O)c1nn(-c2ccccc2)c(=O)c2c(NC(=O)C(C)Oc3ccccc3)scc12 (stereo unspecified) | 114.6 ± 0.95% |
| CC1=C(C(=O)OCc2ccccc2)C(c2ccc(Cl)cc2)C(C#N)=C(N)O1 (stereo unspecified) | 109% |
| O=C(NCc1ccc2c(c1)OCO2)C1CCCN1C(=O)Nc1ccc(Cl)cc1 (stereo unspecified) | 114% |
| Cc1n[nH]c(SCCNCc2cc3c(C)nn(-c4ccc(F)cc4)c3[nH]c2=O)n1 | 94.9% |
| COc1ccccc1-n1c(SCC(=O)Nc2cccc3ccccc23)nc2c(c1=O)SCC2 | 106% |
| COc1ccc(/C=C/C(=O)O)cc1S(=O)(=O)NCc1ccc2c(c1)OCO2 | 115% |
| CCc1cccc(C)c1Nc1nc(N)c(C(=O)CC(C)C)s1 | 124% |
| O=C(Nc1ccc(F)cc1)c1c(O)c2ccccc2[nH]c1=O | 136% |
| COc1cccc(NC(=O)CSc2nn3c(=O)c(C)nnc3s2)c1 | 123% |
| COc1cccc(NC(=O)c2ccc(COc3cccc(C)c3)o2)c1 | 108% |

| SMILES | host macrophage viability |
| --- | --- |
| CC1(C)CC(=O)C2=C(C1)OC(N)=C(C#N)C2Cc1ccccc1 (stereo unspecified) | 132% |
| COCCNC(=O)c1cnc2c(OC)cc(OC)cc2c1O | 105% |
| Cc1ccc(C)c(S(=O)(=O)Nc2ccc(O)c3ccccc23)c1 | 101 ± 3% |
| O=C1N/C(=N/c2ccc(O)cc2)S/C1=C\c1cccnc1 | 130% |
| CC(=O)Nc1ccc(NS(=O)(=O)c2c[nH]c(=O)[nH]c2=O)cc1 | 113% |
| COc1ccc(Nc2ncnc3sc(C(=O)O)c(C)c23)cc1Cl | 100% |
| Cc1sc2nc(C(C)C)n(C3CCN(C(=O)c4ccco4)CC3)c(=O)c2c1C | 95.1% |
| COC(=O)C1CCN(C(c2ccc(Cl)c(Cl)c2)c2sc3nc(C)nn3c2O)CC1 (stereo unspecified) | 113% |
| Cc1cc(Sc2ccc(N)cc2)n2nc(C)nc2n1 | 110% |
| NC(=O)C1CCCN(C(=O)c2ncoc2-c2cccc(F)c2)C1 (stereo unspecified) | 112% |
| O=C(CSc1nc2ccccc2[nH]1)c1cccs1 | 117% |
| CCN(CC)CCCNc1ncnc2sc3c(c12)CC(C)CC3 (stereo unspecified) | 112% |
| Cc1ccc(NC(=O)N2CCC(n3cnc4cccnc43)CC2)cc1Cl | 123% |
| O=C(CSc1nnc2[nH]c(=O)ccn12)NCc1ccccc1Cl | 102% |
| CCN(C(=O)c1ccccn1)c1nc2c(s1)CCc1oc(C)cc1-2 | 137% |
| O=C(Nc1ccc2c(c1)CCC2)c1cccc2nccnc12 | 120% |
| COc1ccc(NC(=O)CSc2nnc3c(C)cc4ccccc4n23)cc1 | 124% |
| Cc1ccc(N2C(=O)c3cc4ccsc4n3CC2(C)C(=O)NC2CCCC2)c(Cl)c1 (stereo unspecified) | 117% |
